# Data from PubChem BioAssay AID493014 (National Center for Advancing Translational Sciences (NCATS), 2011).
# Some of the results follow. These are further read-outs of the screen, such as a control signal, another cell line or another target. No call is given for them. The list favours compounds with an active or inconclusive main result. Potencies come from curve fits of mixed quality, noted in brackets.
# Assay: qHTS Assay to Find Inhibitors of Chronic Active B-Cell Receptor Signaling
# Details: ABC-DLBCL IkBa-CBG/CBR reporter, luminescence ratio (green luciferase fused to IkBa over red control in TMD8 lymphoma cells), 4 h
# Summary of the method: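 Doxycycline induced both beetle luciferases in TMD8 lymphoma cells; IKK-driven degradation limits the IkappaBalpha-fused green signal, while red luminescence normalises for cell number and nonspecific effects. Compounds tested up to 46 uM, 4 hrs.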
# [1] = measured here: CBR red luminescence, cell number
# [2] = measured here: IkBa-CBG green luminescence
SMILES,AC50 [1],AC50 [2]
O=C(CCN1C(=O)c2ccccc2C1=O)NCc1cccc(Cl)c1,"11.2 µM [rising, partial curve]",
COc1ccc(-c2oc3ccccc3c(=O)c2OCC(=O)O)cc1,"12.6 µM [rising, partial curve, poor fit]",
O=C1/C(=C/c2cccnc2)CCc2c1[nH]c1ccccc21,"15.8 µM [falling, single point]",
O=c1[nH]cnc2sc(-c3ccccc3)cc12,"23.1 µM [falling, single point]",
COc1cccc(C(=O)Nc2ccc(Cl)c(C(F)(F)F)c2)c1,"18.4 µM [falling, single point]",
COc1cccc(C2CC(=O)N3CN(c4cccc(Cl)c4C)CSC3=C2C#N)c1OC (stereo unspecified),"25.9 µM [falling, single point]","29.1 µM [rising, single point]"
CCCCS/C(N)=N/N=C/c1ccccc1O,"0.58 µM [rising, partial curve]",
Cc1cc(C)n(-c2ccc(C(=O)Nc3ccc(C)c(S(=O)(=O)N(C)C)c3)cc2)n1,"20.6 µM [falling, single point]",
Cc1nc(SCC(=O)Nc2cc(C)on2)c2c3c(sc2n1)CCCC3,"6.51 µM [rising, single point]",
COC(=O)c1sc(NC(=O)/C=C/c2ccccc2Cl)nc1C,"15.8 µM [falling, partial curve]",
CCOC(=O)c1sc(N2C(=O)C(O)=C(C(=O)c3ccco3)C2c2cccc([N+](=O)[O-])c2)nc1C (stereo unspecified),"35.5 µM [falling, single point]",
O=C(Cc1ccc([N+](=O)[O-])cc1)N1CCCc2ccccc21,"10 µM [rising, partial curve, poor fit]",
C/C(=N\OC(=O)c1ccccc1)c1cc(-c2ccc(Cl)cc2)no1,"0.1 µM [rising, full curve]",
O=C(COC(=O)/C=C/c1cccc(C(F)(F)F)c1)NCc1ccc(F)cc1,"0.00411 µM [falling, full curve, poor fit]",
Cc1csc2nc(CNC(=O)C3CC=CCC3C(=O)O)cn12 (stereo unspecified),"0.651 µM [rising, partial curve, poor fit]",
CCOc1ccccc1NC(=O)CSc1nc2cc(O)ccc2c(=O)n1-c1ccc(OC)c(OC)c1,"12.6 µM [falling, single point]",
CSc1cccc(NC(=O)c2ccc(CN3CCc4ccccc4C3)cc2)c1,"0.178 µM [falling, full curve, poor fit]",
CN(C)c1ccc(-c2nc3ccccn3c2/N=C/c2ccc(Br)cc2)cc1,"32.6 µM [falling, single point]",
COc1cc2c(cc1OC)-c1c(OC)c(OC)cc3ccnc(c13)C2=O,"8.2 µM [rising, partial curve, poor fit]",
Oc1ccc(F)cc1-c1cc(-c2ccc3c(c2)OCCO3)n[nH]1,"0.00461 µM [falling, full curve, poor fit]",
CCN(C(=O)Nc1ccccc1OC)c1c(N)n(Cc2ccccc2)c(=O)[nH]c1=O,"20.6 µM [rising, single point]",
Cc1nnc(SCc2ccc(F)cc2)s1,"11.2 µM [rising, single point]",

# Gathered by group, those above containing a CF3 group (2)
SMILES,AC50 [1],AC50 [2]
COc1cccc(C(=O)Nc2ccc(Cl)c(C(F)(F)F)c2)c1,"18.4 µM [falling, single point]",
O=C(COC(=O)/C=C/c1cccc(C(F)(F)F)c1)NCc1ccc(F)cc1,"0.00411 µM [falling, full curve, poor fit]",

# Next compounds follow.

SMILES,AC50 [1],AC50 [2]
CCCCNC(=O)c1ccccc1NS(=O)(=O)c1ccc2c(c1)OCCO2,"2.06 µM [rising, partial curve, poor fit]",
NC(=O)COC(=O)c1ccc(-c2ccc(O)cc2)cc1,"35.5 µM [rising, single point]",
COc1ccc(N(CC(=O)Nc2ccccc2F)S(=O)(=O)c2ccc(OC)c(OC)c2)cc1,"6.31 µM [rising, single point]",
CCCCCc1nnc(NC(=O)C2=COCCO2)s1,"29.1 µM [falling, single point]",
CCN(CC)C(=O)CN(c1cccc(OC)c1)S(=O)(=O)c1ccc(C)cc1,"0.0116 µM [falling, full curve, poor fit]",
CSc1nc(-c2ccc(Cl)cc2)nc(N)c1C#N,"0.562 µM [falling, full curve, poor fit]",
O=C(Nc1ccccc1Cl)c1ccc2nccnc2c1,"35.5 µM [falling, partial curve, poor fit]",
COC(CNC(=O)c1cccnc1)OC,"3.55 µM [rising, full curve]",
O=C1c2ccccc2NC(c2ccc(-c3cccs3)o2)N1O (stereo unspecified),"16.4 µM [falling, single point]",
NC(=O)Nc1ccc(C(=O)OCC(=O)Nc2ccc(Cl)cn2)cc1,"12.6 µM [falling, partial curve, poor fit]",
CC(C)n1c(O)c(N=NC(=O)C2COc3ccccc3O2)c2ccccc21 (stereo unspecified),"4.47 µM [rising, full curve, poor fit]",
CN(C)S(=O)(=O)c1cccc(NC(=O)c2cc3c(=O)n4ccccc4nc3s2)c1,"29.1 µM [rising, single point]",
CN(CC(=O)OCC(=O)Nc1ccccc1)S(=O)(=O)c1ccc(Cl)cc1,"1.3 µM [falling, full curve, poor fit]",
COC(=O)C1=C(C)N(Cc2ccccc2)C(=O)/C1=C\c1ccco1,"11.2 µM [falling, single point]",
O=C(Cc1ccccc1)Nc1nc(-c2cccs2)cs1,"7.94 µM [falling, partial curve, poor fit]",
COCCOC(=O)c1c(C)oc2ccc(OC(=O)COc3c(F)c(F)c(F)c(F)c3F)cc12,"18.4 µM [rising, partial curve, poor fit]",
CCN(Cc1ccccc1)C(=O)CC1Oc2ccccc2NC1=O (stereo unspecified),"0.206 µM [rising, full curve, poor fit]",
Cc1ccc(CNC(=O)CCc2nc(-c3cccs3)no2)cc1,"6.51 µM [rising, single point]",
O=C(CN1CCN(C(=O)c2ccco2)CC1)Nc1ccc(Br)cc1,"1 µM [rising, full curve, poor fit]",
NC1=NC(=Nc2ccc(Cl)cc2)c2ccccc21,"14.6 µM [falling, partial curve]",
COc1cccc(CNCc2cc(OC)cc(OC)c2)c1,"15.8 µM [falling, single point]",
CCOC(=O)Nc1ccc2c(c1)N(C(=O)N1CCN(C)CC1)c1ccccc1S2,"20.6 µM [falling, partial curve]",

SMILES,AC50 [1],AC50 [2]
COc1ccc(CN(C)C(=O)COC(=O)c2ccc3c(c2)OCO3)cc1OC,"6.51 µM [rising, single point]",
O=[N+]([O-])c1cc([N+](=O)[O-])c(N2CCCCCC2)cc1NCCO,"31.6 µM [rising, single point]",
COc1ccccc1NC(=S)Nc1ccc2cn[nH]c2c1,"11.2 µM [falling, partial curve, poor fit]",
CCOc1ccc2oc(C(=O)OCC(=O)N3CC(C)OC(C)C3)c(C)c2c1 (stereo unspecified),"0.164 µM [falling, full curve, poor fit]",
Nc1ncc(-n2cncn2)c(-c2ccccc2)n1,"4.47 µM [falling, partial curve, poor fit]",
N#CCSc1nc2ccccc2c(=O)n1CCCC(=O)NCc1ccco1,"0.631 µM [falling, partial curve, poor fit]","0.794 µM [rising, full curve, poor fit]"
COc1cccc(NC(=O)c2ccc(NCCCN3CCC(C)CC3)c([N+](=O)[O-])c2)c1,"11.2 µM [falling, partial curve]",
COc1cccc2sc3ccc(NCc4ccc5c(c4)OCO5)cc3c(=O)c12,"35.5 µM [falling, single point]",
CCCc1cc(C(=O)Nc2ccc(C)cc2)no1,"35.5 µM [falling, single point]",
CCN(CC)c1ccc2cc(C(N)=O)/c(=N\NC(=O)c3ccncc3)oc2c1,"20 µM [rising, single point]",
c1ccc2c(Nc3ccc(N4CCOCC4)cc3)nc(N3CCOCC3)nc2c1,"35.5 µM [falling, single point]",
O=C(Nc1ccccn1)C1CCN(S(=O)(=O)c2ccccc2)CC1,"1.16 µM [rising, partial curve]",
Cc1ccn2cc(-c3ccc(S(=O)(=O)N4CCOCC4)cc3)nc2c1,"3.98 µM [rising, full curve]",
COc1ccccc1NC(=O)C1C2CCCCC21 (stereo unspecified),"7.94 µM [rising, partial curve, poor fit]",
CCCCn1c(N)c(N(CCOC)C(=O)CCS(=O)(=O)c2ccc(Cl)cc2)c(=O)[nH]c1=O,"3.26 µM [falling, partial curve, poor fit]",
CC1CC(C)CN(C(=O)/C=C/c2ccc([N+](=O)[O-])s2)C1 (stereo unspecified),"3.16 µM [rising, partial curve]",
O=C(Oc1ccc(/C=N/NC(=O)c2ccccc2F)cc1)c1ccccc1,"0.282 µM [falling, full curve, poor fit]",
CCOC(=O)c1ccc(NC(=O)CCc2nc(-c3ccc(C)cc3)no2)cc1,"29.1 µM [rising, partial curve, poor fit]",
CC(/C=C1\SC(=S)N(CCCC(=O)Nc2ccc(C(=O)O)c(O)c2)C1=O)=C\c1ccccc1,"7.31 µM [falling, partial curve]",
O=C(NC1CCCC1)C(c1ccc(F)cc1)N(Cc1ccccc1Cl)C(=O)CCl (stereo unspecified),"23.1 µM [falling, single point]",

# Part of the list above, bar-delimited:
SMILES | AC50 [1] | AC50 [2]
CCOC(=O)c1sc(N2C(=O)C(O)=C(C(=O)c3ccco3)C2c2cccc([N+](=O)[O-])c2)nc1C (stereo unspecified) | 35.5 µM [falling, single point] | 
O=C(Cc1ccccc1)Nc1nc(-c2cccs2)cs1 | 7.94 µM [falling, partial curve, poor fit] | 
